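Luminescence from an EWS-FLI1 target-promoter (NR0B1) reporter, set against a CMV-promoter reporter, two days after silencing single genes in TC32 Ewing sarcoma cells.
Each siRNA was applied at 20 nM.
A z-score of the log NR0B1-over-CMV signal, less the median of siRNAs with the same seed; more negative means a stronger specific loss of the NR0B1 reporter.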

This is part of the screen; most of the strongest results are not listed here.
Sequences are the guide (antisense) strand, without overhang.

| # | Sequence | gene | seed-corrected z-score |
|---|---|---|---|
| 1 | `AUUCAGACAACAGACUUGC` | MAU2 | -0.398 |
| 2 | `UUCAAUACAAGCAUCAAUG` | CPEB2 | -0.1431 |
| 3 | `UAUUGGAUCAGCUUCAUAC` | RNASE13 | 0.2236 |
| 4 | `UGUUCGUUCUCCAAGUUCC` | NFKBIZ | 1.45 |
| 5 | `UUAACUCAUCGAUUGGUUC` | SPATA17 | -0.08269 |
| 6 | `AGGGUUGAAAUGUAGAUCU` | AKAP1 | -0.7213 |
| 7 | `UCCAGUAAGAUUUGGUGUC` | TTR | -0.1363 |
| 8 | `UUCAAGCUAUCUUCCAUCC` | CPEB4 | 0.02635 |
| 9 | `AUUCAUAGGAUCACUGACG` | MED15 | 0.6006 |
| 10 | `UUGCGUUCACUGGUUAAUG` | AADAT | -0.143 |
| 11 | `UCGCUUUCCACUGAACACC` | TNK2 | -0.01651 |
| 12 | `UUCCUGGAUACCACUGUGC` | RNF183 | -0.2444 |
| 13 | `UACUGUAGCGCAGCUCGUG` | TSEN34 | 1.926 |
| 14 | `AAGGGUAGCUCUGAGAACG` | NRIP2 | -0.01609 |
| 15 | `UCUAUAGUUAUUGGGUGCC` | CD226 | -1.039 |
| 16 | `UUCAAAAGAACCUACAUCC` | GGPS1 | -0.2281 |
| 17 | `UUCCCGAAGAGUGAAAUCC` | SMG8 | 0.5519 |
| 18 | `UCCUUUGCAGUAAAUCUCG` | CSRP1 | -0.1965 |
| 19 | `UCAAUCAGGAAGUACAUGU` | SLC11A1 | -0.08145 |
| 20 | `UUGAGUAACACGAGAGUUC` | ANGPTL1 | -1.086 |
| 21 | `UUCUGGGUAAUGAGAUUGG` | LRRC28 | 0.9908 |
| 22 | `UCUGGAGGUAGUUAGAACC` | KRT5 | 0.1412 |
| 23 | `UUUGACGUAGCCGAUAUCA` | NAGK | 0.129 |
| 24 | `UUACUUGGUAACACUCAUC` | PDS5A | -1.59 |
| 25 | `UGAUUGAAUGCAGAUACUG` | MAPKAPK2 | -1.195 |
| 26 | `UAGCAUGAAGGAAAGAUGG` | PHLDA3 | 0.4998 |
| 27 | `UCUUCGCUGAAGAUGGUGC` | GSC2 | -0.4991 |
| 28 | `UGCAGUAACUGUUAUGAUC` | EPGN | 0.9508 |
| 29 | `UAAACUGCAAAAGAUUUAG` | PLEKHF2 | -0.7436 |
| 30 | `UGUUGUCUCGGGAAGAAGG` | SMCR8 | -0.3791 |
| 31 | `UUGCGUUUGACCAUCAGCG` | HSPA9 | -0.7658 |
| 32 | `AUUACUAAAACUCGGAUCC` | USP53 | 0.8522 |
| 33 | `UUGAGGAUAAUCUCCGGCC` | MIXL1 | 0.2104 |
| 34 | `UACUGGUUCAGAGCCCUCU` | P3H3 | -0.8404 |
| 35 | `UCAAUGACUCGGGUCAUGC` | RPN1 | 0.2451 |
| 36 | `UAAGUACCAUGGAAGAUUG` | GEMIN8 | 1.071 |
| 37 | `UUCAGUCUAAUAACUUUGU` | C1orf95 | 0.4812 |
| 38 | `UGUUCAUGUCCAUUGAUUC` | CYP2C9 | 0.9191 |
| 39 | `UACGUCCUUAGAGACAUUC` | MYO18B | 0.298 |
| 40 | `UCCUUGACCAUUAGGAGGG` | COL3A1 | -0.8496 |
| 41 | `UUAUUAACCAACCAGCUUA` | RPL7P23 | -1.496 |
| 42 | `UAGAUACUCACGGCCUCCC` | CBLC | 0.1379 |
| 43 | `UAUCAGUUAACUCAUUGUG` | LILRB4 | -0.3116 |
| 44 | `UCUGAUAGAAGGUUAGGAG` | C12orf40 | -0.05154 |
| 45 | `UGUCUUCUAAAUCAAUAUC` | C9orf85 | -1.276 |
| 46 | `UAUCGUUUUGAAUAACUCC` | QRSL1 | 0.1627 |
| 47 | `UCAGGAAUGAGUUAUGGUU` | RHOH | -0.3046 |
| 48 | `UACUGGUUAAGCAUGAAGU` | CCBL1 | -0.237 |
| 49 | `AAUACUCUAACUGUAAGGC` | BRAP | -0.2001 |
| 50 | `UUUCCGUUUCCUUUGCUGC` | CCDC38 | -0.2029 |
| 51 | `AAACUGAUGGGCACGGAUG` | PROSER1 | 0.468 |
| 52 | `UCAGAUUUCAGUUGUCUUU` | SRGAP2 | -0.7135 |
| 53 | `UUUGGCAUCCUUUCGUCGG` | RPL38 | -0.5957 |
| 54 | `ACAGUGUAAACCAUGGUGA` | KCNJ5 | 0.3387 |
| 55 | `UGCAUUACCAUAUCCACUC` | CATSPERG | -0.3424 |
| 56 | `UUACAGAUAACCCUGCUCG` | LOC731467 | -0.3538 |
| 57 | `UACCAGAUCAGAGUAAGGC` | IL1RAP | 0.7041 |
| 58 | `UUUCCAAUUAAGAUCAGGU` | MRPL21 | -0.9884 |
| 59 | `UAACUCAUACCAUUCAGAC` | SPAG16 | -0.2955 |
| 60 | `UACGACUGCACAACUUUCC` | XRN2 | 0.2606 |
| 61 | `UUCUGGGCAAUUGUCAAGG` | RSPO3 | 0.1304 |
| 62 | `UUGAGUACCUGCUAAAGGC` | ZNF429 | 0.3328 |
| 63 | `GCAGGUGAGACCUUUGAGC` | SLC35A2 | 0.5844 |
| 64 | `UUUCAUUAAGUCUACCUGG` | ZNF202 | -0.165 |
| 65 | `UCUUGUUCUGGUUUGUUGU` | CCSAP | 0.6658 |
| 66 | `UCCAGUAUAAGUAGUAGCC` | PLCB2 | 0.2347 |
| 67 | `UGUUGGAUUCGUGUAGUGU` | ZNF280D | -0.1377 |
| 68 | `AAAGUUGUCAUAUUUGAUG` | GALNT18 | -0.3106 |
| 69 | `UUCGCAAAUAAAAUGGUCC` | OR2G3 | 0.9511 |
| 70 | `ACAGUUCUAACUAUUAUGC` | LOC729461 | 0.3803 |
| 71 | `UUUUCGUGAAGCAUGGAGC` | SLC37A3 | 0.2646 |
| 72 | `UUCGAUUUCCUUUACUGCC` | KDM5B | 0.3492 |
| 73 | `UUAUUAGCAGGGAUACUAG` | ASXL2 | -0.285 |
| 74 | `UCAAGUGUGAACUCUAACC` | ICMT | 0.04718 |
| 75 | `UAUUUUGCCGGAGAUGAGC` | PNPLA3 | -0.2203 |
| 76 | `UGAAGUUUUCUUGAAGUGG` | ZSCAN22 | -0.06757 |
| 77 | `UGAGAUAAGAGCUCUUCGG` | CEP55 | 0.8299 |

Some entries from above, unchanged:

For UGAAGUUUUCUUGAAGUGG against ZSCAN22 the result was seed-corrected z-score -0.06757.
For UAGCAUGAAGGAAAGAUGG against PHLDA3 the result was seed-corrected z-score 0.4998.
For UUGCGUUUGACCAUCAGCG against HSPA9 the result was seed-corrected z-score -0.7658.
For UUUUCGUGAAGCAUGGAGC against SLC37A3 the result was seed-corrected z-score 0.2646.
For UGUUCGUUCUCCAAGUUCC against NFKBIZ the result was seed-corrected z-score 1.45.
For UUGAGGAUAAUCUCCGGCC against MIXL1 the result was seed-corrected z-score 0.2104.
For UCUGGAGGUAGUUAGAACC against KRT5 the result was seed-corrected z-score 0.1412.

Data taken from PubChem BioAssay AID1159506, deposited by NCATS (2015).